Experiment [1] concerns the target T1, hTA1 (Homo sapiens, UniProt Q96RJ0).
T1 construct: expressed in transfected cells; host or cells: HEK293T
T1 sequence (Q96RJ0 1-339): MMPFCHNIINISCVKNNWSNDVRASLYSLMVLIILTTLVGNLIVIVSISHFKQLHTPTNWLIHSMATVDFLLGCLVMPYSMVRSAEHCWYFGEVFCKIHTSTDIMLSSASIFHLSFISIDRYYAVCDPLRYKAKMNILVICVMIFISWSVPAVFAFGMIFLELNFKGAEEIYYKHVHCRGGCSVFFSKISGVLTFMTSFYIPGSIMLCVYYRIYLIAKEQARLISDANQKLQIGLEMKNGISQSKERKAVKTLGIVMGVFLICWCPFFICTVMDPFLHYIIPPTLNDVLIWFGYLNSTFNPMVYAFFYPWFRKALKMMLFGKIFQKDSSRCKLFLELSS
Kind of experiment: GloSensor cAMP accumulation assay, concentration response, wild-type hTA1 in transfected HEK293T cells.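 Further: luminescence read after 30 min compound exposure at room temperature in cells preloaded with D-Luciferin, reflecting Gs-driven cAMP rise, efficacy scaled to the maximal β-PEA response.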 It counts as cell-based. The note with it: log[Compound], replicate wells.

The target of experiment [2] is T1, hTA1. Kind of experiment: Screen of 89 aminergic compounds at 10 µM, cAMP accumulation in HEK293T cells.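 Further: HEK293T cells co-transfected with hTA1 and GloSensor cAMP reporter, cAMP accumulation detected by luminescence.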 It counts as cell-based.

Molecules are shown by their SMILES. Where “and” joins values, the source holds several entries; their conditions need not be identical. Equal values may be shown once. Some results are limits rather than exact numbers.

For the compound `CCN(CC)C(=O)N[C@H]1C=C2c3cccc4[nH]cc(c34)C[C@H]2N(C)C1` [lisuride], the “Normalized Luminescence Counts for WT hTA1” value in experiment [1] (M = -5) was 9.855 and 8.9709 and 7.628; in experiment [1] (M = -5.522), 4.878 and 5.304 and 4.845; in experiment [1] (M = -6) it was 1.244 and 1.047 and 1.211; in experiment [1] (M = -6.522), 0.1961 and 0.7527 and 1.5058; in experiment [1] (M = -7), 0.06517 and 0.4253 and 0.2616; in experiment [1] (M = -7.522), -0.6551 and -0.4587 and 0.589. For the same compound, the “Normalized Luminescence Counts for WT hTA1” value in experiment [1] (M = -8) was 0.1961 and 0.2944 and 0.2616; in experiment [1] (M = -8.522), -0.03305 and -0.426 and -0.2295; in experiment [1] (M = -9), -0.2622 and -0.1313 and -0.426; in experiment [1] (M = -9.522), -0.1313 and -0.4914 and 0.09791; in experiment [1] (M = -10), 0.2944 and -0.1313 and -0.0003118; in experiment [1] (M = -10.522), 0.4253 and 0.1634 and 0.1307. Besides, the “Normalized Luminescence Counts for WT hTA1” value in experiment [1] (M = -11) was -0.03305 and 0.2616 and -0.4587; in experiment [1] (M = -11.522), 0.2289 and -0.426 and -0.1313; in experiment [1] (M = -12), -0.164 and -0.1313 and -0.4914; in experiment [1] (M = -12.522), 0.3926 and -0.4914 and -0.2295. Further, the “Luminescence for Screening Data” value in experiment [2] is 16.9 and 13.7 and 18.8 and 14.5. Moreover, in experiment [2], the “increase of signal over DMSO-treated controls (hTA1 activation)” value was not below 4 fold.
